Source: publication PMC2815545
These are yes or no findings as the source states them, for the method shown. Binding seen in cells or lysates may run through a third protein. Some entries that bind do so weakly or less than the wild type.

Chains of the proteins cited; added tags and fusions are not shown.
UniProt P05549: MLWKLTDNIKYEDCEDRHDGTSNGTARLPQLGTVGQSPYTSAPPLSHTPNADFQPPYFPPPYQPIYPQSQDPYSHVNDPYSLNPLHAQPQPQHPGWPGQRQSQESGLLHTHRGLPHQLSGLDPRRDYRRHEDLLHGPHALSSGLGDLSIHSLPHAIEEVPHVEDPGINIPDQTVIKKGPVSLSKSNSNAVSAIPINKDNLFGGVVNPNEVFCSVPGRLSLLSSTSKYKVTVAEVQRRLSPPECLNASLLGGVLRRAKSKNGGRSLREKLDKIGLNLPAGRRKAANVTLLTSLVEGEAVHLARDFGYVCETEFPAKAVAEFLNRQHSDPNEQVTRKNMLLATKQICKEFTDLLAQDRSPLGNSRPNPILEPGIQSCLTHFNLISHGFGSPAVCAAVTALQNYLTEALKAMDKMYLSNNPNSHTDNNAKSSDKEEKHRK
UniProt P13010: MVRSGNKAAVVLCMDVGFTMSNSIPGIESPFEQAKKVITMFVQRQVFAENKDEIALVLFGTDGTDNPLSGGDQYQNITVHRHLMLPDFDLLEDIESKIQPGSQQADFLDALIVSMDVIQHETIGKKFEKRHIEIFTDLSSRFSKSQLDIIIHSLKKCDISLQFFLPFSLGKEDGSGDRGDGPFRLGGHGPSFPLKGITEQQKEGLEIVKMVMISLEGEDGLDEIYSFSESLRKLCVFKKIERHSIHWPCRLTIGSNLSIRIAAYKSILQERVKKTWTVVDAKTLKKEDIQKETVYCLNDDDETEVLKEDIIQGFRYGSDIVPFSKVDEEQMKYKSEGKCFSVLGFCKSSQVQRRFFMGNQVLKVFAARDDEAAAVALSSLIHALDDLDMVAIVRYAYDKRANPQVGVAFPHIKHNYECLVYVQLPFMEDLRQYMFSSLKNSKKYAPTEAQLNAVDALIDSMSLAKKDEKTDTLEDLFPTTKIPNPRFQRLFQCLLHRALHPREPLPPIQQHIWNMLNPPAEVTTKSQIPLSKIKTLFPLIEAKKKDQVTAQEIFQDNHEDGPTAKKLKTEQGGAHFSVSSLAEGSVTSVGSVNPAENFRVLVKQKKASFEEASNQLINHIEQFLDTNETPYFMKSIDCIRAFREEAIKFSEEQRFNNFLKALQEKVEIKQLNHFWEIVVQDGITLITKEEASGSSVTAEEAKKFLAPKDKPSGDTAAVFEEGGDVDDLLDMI
UniProt P12956: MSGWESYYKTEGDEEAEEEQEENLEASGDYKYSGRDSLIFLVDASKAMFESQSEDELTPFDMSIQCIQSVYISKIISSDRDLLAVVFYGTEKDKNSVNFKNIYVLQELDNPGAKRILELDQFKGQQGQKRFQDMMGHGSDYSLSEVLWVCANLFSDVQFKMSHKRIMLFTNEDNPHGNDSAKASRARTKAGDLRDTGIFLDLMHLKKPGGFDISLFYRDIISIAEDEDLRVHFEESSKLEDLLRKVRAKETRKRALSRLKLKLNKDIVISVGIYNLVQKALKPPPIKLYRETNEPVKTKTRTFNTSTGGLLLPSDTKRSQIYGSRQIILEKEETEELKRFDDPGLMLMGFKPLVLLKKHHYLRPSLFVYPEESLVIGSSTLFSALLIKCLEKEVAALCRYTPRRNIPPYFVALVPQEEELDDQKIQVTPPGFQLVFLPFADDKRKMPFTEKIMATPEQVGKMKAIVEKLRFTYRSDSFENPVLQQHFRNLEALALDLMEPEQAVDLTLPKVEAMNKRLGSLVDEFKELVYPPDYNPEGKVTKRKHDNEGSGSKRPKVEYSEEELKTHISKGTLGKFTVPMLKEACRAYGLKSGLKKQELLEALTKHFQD

Tests used:
[1] = target: AP-2α (human (endogenous; all cell lines of the paper are human)) (UniProt P05549); test: co-IP; Dynabeads Protein G with anti-AP-2α (C-18), Ku70 (C-19), Ku86 (C-20) antibodies or control antibody; proteins revealed by immunoblotting; endogenous proteins
[2] = target: Glutathione-Serine-Transferase/AP-2α (GST-AP2) hybrid protein (UniProt P05549); test: pull-down; GST-AP2 on MagneGST beads incubated with BT474 nuclear proteins in PBS at RT; eluted with Laemmli buffer; immunoblotting with Ku specific antibodies; also after treatment of the beads with increasing concentrations of DNase I (1 h, 37°C); only the target purified

Substance	binding [1]	binding [2]
Ku80 (from UniProt P13010 1-732)	binds	binds
Ku70 (from UniProt P12956 1-609)	binds	binds
